2 molecules from publication PMC8748997 can be followed below.

These are yes or no findings as the source states them, for the method shown. A result given as binding can be weak or reduced; the word gives no strength. Sequences can lack the tags named with a protein. For some assays here: In cells and extracts the contact can be indirect.

The target in experiment [1] is Akt (mouse (endogenous in 32D clone 3)). Description: co-IP; 32D clone 3 cells transfected with Flag-SOCS1 for 30 h; lysates cleared with protein G beads, incubated with 2 ug monoclonal anti-Akt or FLAG antibody or IgG overnight at 4 C; immunoblot.
For the next experiment, the target named is GST-Akt. Nature of the experiment: pull-down; GST pull-down: GST-Akt and His-SOCS1 incubated in reaction buffer at 4 C for 1 h, then with GST-beads overnight at 4 C; washed four times with low-salt buffer; immunoblot with anti-His; both purified. Background: A western blot detects proteins with antibodies after separation by electrophoresis.

B1: Flag-SOCS1 (protein, UniProt O35716 1-212)
chain: MVARNQVAADNAISPAAEPRRRSEPSSSSSSSSPAAPVRPRPCPAVPAPAPGDTHFRTFRSHSDYRRITRTSALLDACGFYWGPLSVHGAHERLRAEPVGTFLVRDSRQRNCFFALSVKMASGPTSIRVHFQAGRFHLDGSRETFDCLFELLEHYVAAPRRMLGAPLRQRRVRPLQELCRQRIVAAVGRENLARIPLNPVLRDYLSSFPFQI
On to B1, for which the binding entry in experiment [1] is on record as “binds”.

B2: His-SOCS1 (protein, UniProt O35716 1-212)
chain: MVARNQVAADNAISPAAEPRRRSEPSSSSSSSSPAAPVRPRPCPAVPAPAPGDTHFRTFRSHSDYRRITRTSALLDACGFYWGPLSVHGAHERLRAEPVGTFLVRDSRQRNCFFALSVKMASGPTSIRVHFQAGRFHLDGSRETFDCLFELLEHYVAAPRRMLGAPLRQRRVRPLQELCRQRIVAAVGRENLARIPLNPVLRDYLSSFPFQI
Take B2: the binding entry with GST-Akt is listed as “binds”.
